Assay results published in the supplement of paper PMC7661543.
± gives the standard deviation of the averaged measurements. The effect of the compound repeats well; differences between the knockouts mostly do not.

System: HCC-38
Experiment: relative cell number vs DMSO control (72 h) (% of DMSO); higher = less growth inhibition (more cells)
Procedure: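 QMAP-Seq: a pool of 5 breast cancer cell lines (ZR-75-1, SKBR3, HCC-38, MDA-MB-231, BT-20), each carrying 12 doxycycline-inducible Cas9 sgRNA perturbations (11 knockouts plus non-targeting sgNT), was treated with compounds for 72 h at four 10-fold doses (10 nM-10 uM or 1 nM-1 uM range). Barcodes were amplified and sequenced, and cell number was interpolated from 293T spike-in standard curves. The result is expressed as % of the median of DMSO wells. Two biological replicates.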

CCC(C)SSc1ncc[nH]1 (configuration not stated) [PX12]
Conditions | relative cell number
sgRNA knockout: sgATF3, 10 nM | 103 ± 7.3
sgRNA knockout: sgATF3, 100 nM | 111 ± 1.2
sgRNA knockout: sgATF3, 1000 nM | 98.1 ± 4.5
sgRNA knockout: sgATF3, 10000 nM | 87.2 ± 13
sgRNA knockout: sgATF4, 10 nM | 106.3 ± 0.68
sgRNA knockout: sgATF4, 100 nM | 116 ± 31
sgRNA knockout: sgATF4, 1000 nM | 89.1 ± 9.6
sgRNA knockout: sgATF4, 10000 nM | 81.1 ± 5.2
sgRNA knockout: sgATF6, 10 nM | 108 ± 17
sgRNA knockout: sgATF6, 100 nM | 109 ± 5.6
sgRNA knockout: sgATF6, 1000 nM | 89 ± 2.4
sgRNA knockout: sgATF6, 10000 nM | 80.7 ± 1
sgRNA knockout: sgATG7, 10 nM | 103 ± 10
sgRNA knockout: sgATG7, 100 nM | 107 ± 9.9
sgRNA knockout: sgATG7, 1000 nM | 88 ± 6.8
sgRNA knockout: sgATG7, 10000 nM | 82 ± 1.8
sgRNA knockout: sgERN1, 10 nM | 98.8 ± 9.9
sgRNA knockout: sgERN1, 100 nM | 107 ± 8.6
sgRNA knockout: sgERN1, 1000 nM | 99 ± 9.3
sgRNA knockout: sgERN1, 10000 nM | 81.8 ± 6.9
sgRNA knockout: sgHSF1, 10 nM | 107 ± 13
sgRNA knockout: sgHSF1, 100 nM | 123 ± 35
sgRNA knockout: sgHSF1, 1000 nM | 86.1 ± 6.9
sgRNA knockout: sgHSF1, 10000 nM | 88.4 ± 3.4
sgRNA knockout: sgHSF2, 10 nM | 104 ± 2.1
sgRNA knockout: sgHSF2, 100 nM | 117 ± 7.1
sgRNA knockout: sgHSF2, 1000 nM | 96.4 ± 5.5
sgRNA knockout: sgHSF2, 10000 nM | 74.4 ± 8.8
sgRNA knockout: sgKEAP1, 10 nM | 116 ± 38
sgRNA knockout: sgKEAP1, 100 nM | 129 ± 47
sgRNA knockout: sgKEAP1, 1000 nM | 86.4 ± 2.5
sgRNA knockout: sgKEAP1, 10000 nM | 87.3 ± 6.7
sgRNA knockout: sgNFE2L2, 10 nM | 102 ± 4
sgRNA knockout: sgNFE2L2, 100 nM | 106 ± 30
sgRNA knockout: sgNFE2L2, 1000 nM | 85.5 ± 16
sgRNA knockout: sgNFE2L2, 10000 nM | 82.5 ± 1.1
sgRNA knockout: sgSLC35F2, 10 nM | 107 ± 10
sgRNA knockout: sgSLC35F2, 100 nM | 106 ± 4.9
sgRNA knockout: sgSLC35F2, 1000 nM | 87.7 ± 10
sgRNA knockout: sgSLC35F2, 10000 nM | 77.1 ± 13
sgRNA knockout: sgXBP1, 10 nM | 111 ± 1.5
sgRNA knockout: sgXBP1, 100 nM | 108 ± 6.7
sgRNA knockout: sgXBP1, 1000 nM | 88.2 ± 18
sgRNA knockout: sgXBP1, 10000 nM | 84 ± 4

Cc1ncc([N+](=O)[O-])n1CC(O)CCl (configuration not stated) [Ornidazole]
Conditions | relative cell number
sgRNA knockout: sgATF3, 10 nM | 92 ± 9.9
sgRNA knockout: sgATF3, 100 nM | 92 ± 12
sgRNA knockout: sgATF3, 1000 nM | 105.5 ± 0.21
sgRNA knockout: sgATF3, 10000 nM | 90.9 ± 6.7
sgRNA knockout: sgATF4, 10 nM | 91.8 ± 3.9
sgRNA knockout: sgATF4, 100 nM | 91 ± 16
sgRNA knockout: sgATF4, 1000 nM | 108 ± 25
sgRNA knockout: sgATF4, 10000 nM | 90.65 ± 0.82
sgRNA knockout: sgATF6, 10 nM | 95.9 ± 7.5
sgRNA knockout: sgATF6, 100 nM | 114 ± 12
sgRNA knockout: sgATF6, 1000 nM | 120 ± 1.8
sgRNA knockout: sgATF6, 10000 nM | 113 ± 5.8
sgRNA knockout: sgATG7, 10 nM | 92.6 ± 1.9
sgRNA knockout: sgATG7, 100 nM | 91.6 ± 4.7
sgRNA knockout: sgATG7, 1000 nM | 121 ± 9.5
sgRNA knockout: sgATG7, 10000 nM | 92.3 ± 1.4
sgRNA knockout: sgERN1, 10 nM | 81.6 ± 7.7
sgRNA knockout: sgERN1, 100 nM | 100 ± 20
sgRNA knockout: sgERN1, 1000 nM | 114 ± 11
sgRNA knockout: sgERN1, 10000 nM | 89.6 ± 13
sgRNA knockout: sgHSF1, 10 nM | 96.9 ± 26
sgRNA knockout: sgHSF1, 100 nM | 82.6 ± 8
sgRNA knockout: sgHSF1, 1000 nM | 103 ± 9.2
sgRNA knockout: sgHSF1, 10000 nM | 105 ± 12
sgRNA knockout: sgHSF2, 10 nM | 92.8 ± 7.4
sgRNA knockout: sgHSF2, 100 nM | 106 ± 13
sgRNA knockout: sgHSF2, 1000 nM | 125 ± 1.4
sgRNA knockout: sgHSF2, 10000 nM | 101 ± 6.3
sgRNA knockout: sgKEAP1, 10 nM | 90 ± 9.4
sgRNA knockout: sgKEAP1, 100 nM | 105 ± 11
sgRNA knockout: sgKEAP1, 1000 nM | 97.8 ± 19
sgRNA knockout: sgKEAP1, 10000 nM | 104 ± 5.6
sgRNA knockout: sgNFE2L2, 10 nM | 82.4 ± 11
sgRNA knockout: sgNFE2L2, 100 nM | 96.8 ± 18
sgRNA knockout: sgNFE2L2, 1000 nM | 110 ± 17
sgRNA knockout: sgNFE2L2, 10000 nM | 84.7 ± 3.1
sgRNA knockout: sgSLC35F2, 10 nM | 88.499 ± 0.051
sgRNA knockout: sgSLC35F2, 100 nM | 100 ± 23
sgRNA knockout: sgSLC35F2, 1000 nM | 110 ± 31
sgRNA knockout: sgSLC35F2, 10000 nM | 96.6 ± 16
sgRNA knockout: sgXBP1, 10 nM | 86.1 ± 12
sgRNA knockout: sgXBP1, 100 nM | 95 ± 14
sgRNA knockout: sgXBP1, 1000 nM | 115 ± 17
sgRNA knockout: sgXBP1, 10000 nM | 85.2 ± 8.2

Nc1nc(OCc2cc(Br)cs2)c2[nH]cnc2n1 [Lomeguatrib]
Conditions | relative cell number
sgRNA knockout: sgATF3, 10 nM | 103 ± 2
sgRNA knockout: sgATF3, 100 nM | 87.1 ± 11
sgRNA knockout: sgATF3, 1000 nM | 92.17 ± 0.83
sgRNA knockout: sgATF3, 10000 nM | 86.5 ± 3.8
sgRNA knockout: sgATF4, 10 nM | 100.1 ± 0.31
sgRNA knockout: sgATF4, 100 nM | 83.6 ± 5.5
sgRNA knockout: sgATF4, 1000 nM | 84.1 ± 8.9
sgRNA knockout: sgATF4, 10000 nM | 84.8 ± 9.5
sgRNA knockout: sgATF6, 10 nM | 106 ± 14
sgRNA knockout: sgATF6, 100 nM | 104 ± 4.5
sgRNA knockout: sgATF6, 1000 nM | 92.4 ± 5
sgRNA knockout: sgATF6, 10000 nM | 76.7 ± 13
sgRNA knockout: sgATG7, 10 nM | 95.2 ± 4.4
sgRNA knockout: sgATG7, 100 nM | 83.5 ± 3
sgRNA knockout: sgATG7, 1000 nM | 80.7 ± 10
sgRNA knockout: sgATG7, 10000 nM | 92.6 ± 13
sgRNA knockout: sgERN1, 10 nM | 105 ± 1.4
sgRNA knockout: sgERN1, 100 nM | 91.5 ± 13
sgRNA knockout: sgERN1, 1000 nM | 88.6 ± 12
sgRNA knockout: sgERN1, 10000 nM | 90.7 ± 15
sgRNA knockout: sgHSF1, 10 nM | 114 ± 16
sgRNA knockout: sgHSF1, 100 nM | 101 ± 11
sgRNA knockout: sgHSF1, 1000 nM | 108 ± 23
sgRNA knockout: sgHSF1, 10000 nM | 81.5 ± 15
sgRNA knockout: sgHSF2, 10 nM | 105.04 ± 0.06
sgRNA knockout: sgHSF2, 100 nM | 94.9 ± 2
sgRNA knockout: sgHSF2, 1000 nM | 89.4 ± 12
sgRNA knockout: sgHSF2, 10000 nM | 81.3 ± 1.6
sgRNA knockout: sgKEAP1, 10 nM | 98.8 ± 12
sgRNA knockout: sgKEAP1, 100 nM | 103 ± 1.8
sgRNA knockout: sgKEAP1, 1000 nM | 91.1 ± 13
sgRNA knockout: sgKEAP1, 10000 nM | 82.3 ± 14
sgRNA knockout: sgNFE2L2, 10 nM | 98.4 ± 5.9
sgRNA knockout: sgNFE2L2, 100 nM | 80.6 ± 5.9
sgRNA knockout: sgNFE2L2, 1000 nM | 79.5 ± 13
sgRNA knockout: sgNFE2L2, 10000 nM | 92.6 ± 23
sgRNA knockout: sgSLC35F2, 10 nM | 97.5 ± 1.9
sgRNA knockout: sgSLC35F2, 100 nM | 97.3 ± 9.7
sgRNA knockout: sgSLC35F2, 1000 nM | 90.3 ± 6.9
sgRNA knockout: sgSLC35F2, 10000 nM | 75.1 ± 2
sgRNA knockout: sgXBP1, 10 nM | 99.6 ± 7
sgRNA knockout: sgXBP1, 100 nM | 84.8 ± 8.3
sgRNA knockout: sgXBP1, 1000 nM | 88.9 ± 10
sgRNA knockout: sgXBP1, 10000 nM | 86 ± 12
